From the supplement of paper PMC6411743
± gives the standard deviation of the averaged measurements. This is a selection; strong and weak results do not stand in their true shares. Most entries show no effect beyond the scatter of the controls.

Amino acid sequences for entries named in this document (tags omitted). A change or cut given only in a name is not applied to a line headed by its entry.
UniProt Q9UJX5, whole entry: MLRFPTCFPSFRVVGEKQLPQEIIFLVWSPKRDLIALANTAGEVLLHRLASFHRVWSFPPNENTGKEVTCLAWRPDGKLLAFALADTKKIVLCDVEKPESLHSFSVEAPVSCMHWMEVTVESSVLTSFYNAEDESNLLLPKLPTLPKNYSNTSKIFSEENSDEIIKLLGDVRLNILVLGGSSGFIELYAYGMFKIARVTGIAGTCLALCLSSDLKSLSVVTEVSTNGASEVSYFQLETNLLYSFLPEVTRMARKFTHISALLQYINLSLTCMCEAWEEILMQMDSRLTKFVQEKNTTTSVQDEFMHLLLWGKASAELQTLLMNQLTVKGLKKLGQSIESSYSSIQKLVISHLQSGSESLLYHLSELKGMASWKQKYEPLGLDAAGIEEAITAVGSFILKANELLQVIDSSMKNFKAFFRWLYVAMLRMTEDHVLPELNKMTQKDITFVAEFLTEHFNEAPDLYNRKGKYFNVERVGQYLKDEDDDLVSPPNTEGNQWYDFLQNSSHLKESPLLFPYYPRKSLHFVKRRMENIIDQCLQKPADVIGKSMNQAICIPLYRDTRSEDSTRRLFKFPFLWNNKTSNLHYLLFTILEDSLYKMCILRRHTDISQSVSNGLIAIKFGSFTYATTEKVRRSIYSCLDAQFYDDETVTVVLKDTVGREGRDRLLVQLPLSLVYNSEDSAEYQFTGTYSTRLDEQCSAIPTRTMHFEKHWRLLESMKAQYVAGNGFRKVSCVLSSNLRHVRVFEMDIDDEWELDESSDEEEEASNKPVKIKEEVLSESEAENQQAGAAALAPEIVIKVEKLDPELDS
UniProt Q9Y3B4: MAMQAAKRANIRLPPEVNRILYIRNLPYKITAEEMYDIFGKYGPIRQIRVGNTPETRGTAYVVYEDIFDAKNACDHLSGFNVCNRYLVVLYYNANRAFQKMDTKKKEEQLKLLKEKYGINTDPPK
UniProt Q9Y2G3: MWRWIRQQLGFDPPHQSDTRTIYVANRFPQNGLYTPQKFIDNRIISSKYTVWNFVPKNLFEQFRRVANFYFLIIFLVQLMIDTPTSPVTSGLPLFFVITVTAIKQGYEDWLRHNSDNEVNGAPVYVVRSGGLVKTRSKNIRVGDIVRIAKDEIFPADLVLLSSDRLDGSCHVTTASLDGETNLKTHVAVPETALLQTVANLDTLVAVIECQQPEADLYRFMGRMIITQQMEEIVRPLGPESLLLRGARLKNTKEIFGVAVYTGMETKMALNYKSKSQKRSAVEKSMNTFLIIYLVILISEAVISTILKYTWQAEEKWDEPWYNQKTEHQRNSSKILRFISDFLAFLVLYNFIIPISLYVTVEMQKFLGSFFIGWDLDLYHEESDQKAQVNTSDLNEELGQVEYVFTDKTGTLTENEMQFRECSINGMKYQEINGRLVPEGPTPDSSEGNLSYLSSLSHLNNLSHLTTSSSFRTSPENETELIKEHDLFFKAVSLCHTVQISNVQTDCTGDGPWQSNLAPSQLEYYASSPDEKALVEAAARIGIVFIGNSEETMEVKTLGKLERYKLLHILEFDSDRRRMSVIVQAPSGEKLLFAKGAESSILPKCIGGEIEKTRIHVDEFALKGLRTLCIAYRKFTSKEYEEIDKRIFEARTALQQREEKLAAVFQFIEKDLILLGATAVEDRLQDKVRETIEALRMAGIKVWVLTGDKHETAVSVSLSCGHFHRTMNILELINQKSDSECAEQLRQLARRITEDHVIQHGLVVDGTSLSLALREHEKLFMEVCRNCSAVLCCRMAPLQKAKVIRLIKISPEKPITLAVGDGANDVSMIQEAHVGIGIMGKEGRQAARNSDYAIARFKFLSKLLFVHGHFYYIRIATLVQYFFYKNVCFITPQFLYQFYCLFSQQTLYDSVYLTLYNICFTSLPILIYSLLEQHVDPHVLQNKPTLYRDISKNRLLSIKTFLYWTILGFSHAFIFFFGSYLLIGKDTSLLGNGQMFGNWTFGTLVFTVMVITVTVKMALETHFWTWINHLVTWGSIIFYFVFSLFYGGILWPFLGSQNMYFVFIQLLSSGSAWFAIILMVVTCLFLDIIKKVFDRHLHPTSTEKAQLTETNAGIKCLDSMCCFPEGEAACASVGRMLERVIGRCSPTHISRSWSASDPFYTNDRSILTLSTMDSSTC
UniProt Q9UI12, whole entry: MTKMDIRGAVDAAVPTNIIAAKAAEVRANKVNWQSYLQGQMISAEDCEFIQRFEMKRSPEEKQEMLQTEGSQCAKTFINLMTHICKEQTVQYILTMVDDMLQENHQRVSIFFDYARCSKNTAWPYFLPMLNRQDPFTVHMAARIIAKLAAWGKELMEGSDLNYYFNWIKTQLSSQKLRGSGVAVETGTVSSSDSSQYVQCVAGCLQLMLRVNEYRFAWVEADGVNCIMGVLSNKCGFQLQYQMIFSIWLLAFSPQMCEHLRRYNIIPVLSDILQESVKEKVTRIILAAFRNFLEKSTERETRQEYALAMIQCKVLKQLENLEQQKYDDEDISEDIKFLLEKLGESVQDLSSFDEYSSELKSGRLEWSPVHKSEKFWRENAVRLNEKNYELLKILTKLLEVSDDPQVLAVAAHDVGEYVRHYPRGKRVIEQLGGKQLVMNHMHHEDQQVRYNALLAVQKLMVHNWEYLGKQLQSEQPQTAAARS
UniProt Q9UI09, whole entry: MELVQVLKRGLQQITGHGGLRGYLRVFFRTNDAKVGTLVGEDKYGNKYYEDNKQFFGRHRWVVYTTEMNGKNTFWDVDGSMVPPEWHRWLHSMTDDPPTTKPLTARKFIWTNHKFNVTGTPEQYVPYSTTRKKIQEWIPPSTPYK
UniProt Q9UEE9, whole entry: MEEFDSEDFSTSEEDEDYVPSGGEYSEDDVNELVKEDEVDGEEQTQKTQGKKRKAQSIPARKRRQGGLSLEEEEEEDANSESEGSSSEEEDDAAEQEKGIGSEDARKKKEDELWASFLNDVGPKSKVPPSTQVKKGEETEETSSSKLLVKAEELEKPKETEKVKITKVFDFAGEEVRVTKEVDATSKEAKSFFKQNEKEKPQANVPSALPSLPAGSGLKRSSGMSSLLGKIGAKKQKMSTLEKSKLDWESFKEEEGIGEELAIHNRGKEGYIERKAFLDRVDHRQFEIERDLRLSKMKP
UniProt Q9Y2D5: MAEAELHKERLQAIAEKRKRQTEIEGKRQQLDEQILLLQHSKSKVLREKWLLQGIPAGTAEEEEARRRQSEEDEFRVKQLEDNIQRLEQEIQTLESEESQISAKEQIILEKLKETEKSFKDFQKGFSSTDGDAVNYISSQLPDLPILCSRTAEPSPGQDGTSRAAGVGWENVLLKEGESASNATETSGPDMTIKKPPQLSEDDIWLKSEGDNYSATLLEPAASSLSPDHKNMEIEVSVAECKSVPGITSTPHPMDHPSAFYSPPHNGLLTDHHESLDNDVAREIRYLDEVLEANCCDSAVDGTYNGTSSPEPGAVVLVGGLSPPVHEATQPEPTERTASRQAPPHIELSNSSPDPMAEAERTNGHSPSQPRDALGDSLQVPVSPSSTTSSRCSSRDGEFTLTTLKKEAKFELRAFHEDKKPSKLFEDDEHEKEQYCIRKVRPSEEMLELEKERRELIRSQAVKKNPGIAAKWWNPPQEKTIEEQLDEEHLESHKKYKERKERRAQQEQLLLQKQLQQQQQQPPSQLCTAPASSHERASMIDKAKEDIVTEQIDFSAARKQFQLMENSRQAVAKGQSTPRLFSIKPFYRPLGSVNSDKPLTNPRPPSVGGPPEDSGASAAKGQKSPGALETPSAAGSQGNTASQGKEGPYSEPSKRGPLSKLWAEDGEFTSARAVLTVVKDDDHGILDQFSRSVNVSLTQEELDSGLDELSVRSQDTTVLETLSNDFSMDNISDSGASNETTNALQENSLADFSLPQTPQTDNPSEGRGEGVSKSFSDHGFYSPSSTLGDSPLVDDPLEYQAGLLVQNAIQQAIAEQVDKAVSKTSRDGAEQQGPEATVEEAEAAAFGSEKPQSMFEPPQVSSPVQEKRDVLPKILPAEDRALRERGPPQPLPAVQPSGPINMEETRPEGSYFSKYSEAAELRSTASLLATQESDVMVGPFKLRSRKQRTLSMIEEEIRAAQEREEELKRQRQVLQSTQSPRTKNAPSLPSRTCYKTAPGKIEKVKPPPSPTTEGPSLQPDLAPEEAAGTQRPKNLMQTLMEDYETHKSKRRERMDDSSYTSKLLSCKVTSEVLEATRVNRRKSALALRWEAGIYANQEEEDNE
UniProt Q9ULX6: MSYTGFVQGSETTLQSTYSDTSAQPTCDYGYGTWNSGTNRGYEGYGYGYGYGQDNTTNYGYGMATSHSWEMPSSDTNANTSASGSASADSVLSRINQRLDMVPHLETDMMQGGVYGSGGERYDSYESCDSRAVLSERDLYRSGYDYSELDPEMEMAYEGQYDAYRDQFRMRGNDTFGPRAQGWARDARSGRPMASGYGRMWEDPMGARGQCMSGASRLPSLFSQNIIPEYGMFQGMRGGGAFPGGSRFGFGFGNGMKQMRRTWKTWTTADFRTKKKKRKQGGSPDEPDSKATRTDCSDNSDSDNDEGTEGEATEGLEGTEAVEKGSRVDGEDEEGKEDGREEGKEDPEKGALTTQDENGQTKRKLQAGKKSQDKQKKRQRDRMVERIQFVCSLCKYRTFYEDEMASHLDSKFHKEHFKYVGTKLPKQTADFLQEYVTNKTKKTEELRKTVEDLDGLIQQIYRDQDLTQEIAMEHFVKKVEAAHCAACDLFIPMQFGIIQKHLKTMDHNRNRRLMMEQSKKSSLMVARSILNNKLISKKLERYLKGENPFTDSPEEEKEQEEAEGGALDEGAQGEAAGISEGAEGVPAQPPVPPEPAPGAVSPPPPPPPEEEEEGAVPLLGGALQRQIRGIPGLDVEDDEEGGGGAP
UniProt Q9UK61: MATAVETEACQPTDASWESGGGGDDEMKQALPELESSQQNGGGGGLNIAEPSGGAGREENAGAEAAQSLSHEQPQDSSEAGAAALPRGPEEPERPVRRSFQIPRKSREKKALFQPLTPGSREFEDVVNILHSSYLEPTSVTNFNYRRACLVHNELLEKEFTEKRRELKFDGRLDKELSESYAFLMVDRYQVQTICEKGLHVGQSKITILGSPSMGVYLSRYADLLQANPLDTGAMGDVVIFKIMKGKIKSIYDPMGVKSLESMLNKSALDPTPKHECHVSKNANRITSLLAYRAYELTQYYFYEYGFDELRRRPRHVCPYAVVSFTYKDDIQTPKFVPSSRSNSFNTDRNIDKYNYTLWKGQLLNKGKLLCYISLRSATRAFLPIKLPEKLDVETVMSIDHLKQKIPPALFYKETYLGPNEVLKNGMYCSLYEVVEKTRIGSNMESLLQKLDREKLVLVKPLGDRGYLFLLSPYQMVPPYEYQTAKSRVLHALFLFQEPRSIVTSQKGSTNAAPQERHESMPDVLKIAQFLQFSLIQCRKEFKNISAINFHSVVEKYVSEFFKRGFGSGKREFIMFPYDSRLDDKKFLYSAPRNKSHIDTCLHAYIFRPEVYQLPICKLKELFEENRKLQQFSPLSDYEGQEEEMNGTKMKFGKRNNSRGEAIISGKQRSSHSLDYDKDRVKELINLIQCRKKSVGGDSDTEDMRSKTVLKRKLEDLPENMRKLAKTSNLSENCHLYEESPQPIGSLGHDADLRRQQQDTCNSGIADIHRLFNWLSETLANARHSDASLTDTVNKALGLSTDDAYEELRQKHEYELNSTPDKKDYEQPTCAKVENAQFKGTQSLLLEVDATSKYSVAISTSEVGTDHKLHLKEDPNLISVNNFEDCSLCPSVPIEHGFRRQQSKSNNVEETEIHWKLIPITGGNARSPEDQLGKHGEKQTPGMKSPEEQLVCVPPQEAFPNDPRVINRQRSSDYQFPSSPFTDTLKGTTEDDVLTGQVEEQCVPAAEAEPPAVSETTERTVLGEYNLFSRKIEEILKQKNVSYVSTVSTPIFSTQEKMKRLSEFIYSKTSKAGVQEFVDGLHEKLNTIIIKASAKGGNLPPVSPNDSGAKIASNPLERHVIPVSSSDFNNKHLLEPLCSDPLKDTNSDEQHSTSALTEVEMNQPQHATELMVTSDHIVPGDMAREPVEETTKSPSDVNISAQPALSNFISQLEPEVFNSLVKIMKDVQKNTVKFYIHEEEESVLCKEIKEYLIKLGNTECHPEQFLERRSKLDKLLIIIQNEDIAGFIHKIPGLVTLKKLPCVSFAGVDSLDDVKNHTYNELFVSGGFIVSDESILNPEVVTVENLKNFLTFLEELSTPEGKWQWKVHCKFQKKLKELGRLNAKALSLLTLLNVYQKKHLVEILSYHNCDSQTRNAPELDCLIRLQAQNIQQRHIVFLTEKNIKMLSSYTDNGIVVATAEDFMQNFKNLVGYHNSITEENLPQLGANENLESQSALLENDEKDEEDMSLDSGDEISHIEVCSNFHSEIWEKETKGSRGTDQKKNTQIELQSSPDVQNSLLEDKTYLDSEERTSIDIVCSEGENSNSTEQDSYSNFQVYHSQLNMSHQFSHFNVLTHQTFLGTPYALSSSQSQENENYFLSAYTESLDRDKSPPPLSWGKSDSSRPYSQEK

Compound: Nc1ncnc2c1ncn2[C@@H]1O[C@H](COP(=O)(O)OP(=O)(O)NP(=O)(O)O)[C@@H](O)[C@H]1O [adenylyl imidodiphosphate]
Experiment: NP40-soluble protein abundance relative to vehicle (solubility fold change) (ratio); higher = more soluble protein in presence of AMP-PNP
Method in brief: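 Jurkat crude lysate (Dounce-homogenised) was treated with eight concentrations from 0.1 to 10 mM for 10 min at room temperature, then 3 min at 37 °C. It was solubilised with 0.8% NP40 and benzonase (60 min, 4 °C) and ultracentrifuged, and the supernatant was TMT-labelled for LC-MS/MS. Intensities were vsn-normalised, and the value is the fold change against the NP40-processed vehicle per replicate, from three independent experiments.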

Row | Target | NP40-soluble protein abundance (concentration: 0.1mM) | NP40-soluble protein abundance (concentration: 0.5mM)
1 | NOTCH3 (UniProt Q9UM47) | 1 ± 0.019 | 0.989 ± 0.035
2 | UniProt Q9UNQ2 | 1.02 ± 0.032 | 0.983 ± 0.042
3 | RRP15 (UniProt Q9Y3B9) | 0.979 ± 0.025 | 0.994 ± 0.036
4 | UniProt Q9ULV4 and related entries | 1.02 ± 0.063 | 1.06 ± 0.056
5 | UniProt Q9UJX5 and related entries | 0.987 ± 0.029 | 0.993 ± 0.019
6 | UniProt Q9UMS0 and related entries | 1.01 ± 0.022 | 1.05 ± 0.035
7 | UniProt Q9Y3B4 | 1.06 ± 0.061 | 0.982 ± 0.053
8 | UniProt Q9UI10 and related entries | 1.01 ± 0.0074 | 0.982 ± 0.028
9 | ATP11B (UniProt Q9Y2G3) | 1.044 ± 0.0067 | 0.956 ± 0.12
10 | UniProt Q9UI12 and related entries | 1 ± 0.028 | 0.989 ± 0.016
11 | NDUFA12 (UniProt Q9UI09) | 1 ± 0.04 | 1.04 ± 0.029
12 | NOB1 (UniProt Q9ULX3) | 1.04 ± 0.021 | 0.992 ± 0.024
13 | CFDP1 (UniProt Q9UEE9) | 0.977 ± 0.037 | 1.03 ± 0.1
14 | UniProt Q9UPT9 and related entries | 1 ± 0.059 | 0.968 ± 0.047
15 | TRAF3IP3 (UniProt Q9Y228) | 1 ± 0.049 | 0.992 ± 0.077
16 | TTF2 (UniProt Q9UNY4) | 1.01 ± 0.019 | 0.999 ± 0.029
17 | AASS (UniProt Q9UDR5) | 1.02 ± 0.026 | 0.984 ± 0.037
18 | UniProt Q9UH99 and related entries | 1 ± 0.022 | 1.04 ± 0.042
19 | UniProt Q9Y232 and related entries | 0.979 ± 0.072 | 0.969 ± 0.053
20 | UniProt Q9ULL5-3 | 1.05 ± 0.037 | 1.01 ± 0.02
21 | UniProt Q9UIC8 and related entries | 0.99 ± 0.049 | 0.95 ± 0.084
22 | UniProt Q9Y2D5 and related entries | 0.9978 ± 0.0075 | 1.07 ± 0.044

Row | Target | NP40-soluble protein abundance (concentration: 0.1mM) | NP40-soluble protein abundance (concentration: 0.5mM)
23 | UniProt Q9ULX6 and related entries | 0.994 ± 0.04 | 0.971 ± 0.047
24 | RUVBL2 (UniProt Q9Y230) | 1.02 ± 0.035 | 1.04 ± 0.039
25 | UniProt Q9ULI0 and related entries | 0.9986 ± 0.0096 | 1.03 ± 0.0027
26 | UniProt Q9UPN7 | 1.05 ± 0.037 | 0.991 ± 0.035
27 | UniProt Q9UL12 and related entries | 1.01 ± 0.024 | 0.9924 ± 0.0031
28 | C19orf53 (UniProt Q9UNZ5) | 0.9887 ± 0.0088 | 1.06 ± 0.054
29 | UniProt Q9Y224 | 0.949 ± 0.057 | 0.99 ± 0.13
30 | SPG7 (UniProt Q9UQ90) | 0.962 ± 0.0085 | 0.94 ± 0.027
31 | NOP58 (UniProt Q9Y2X3) | 1.026 ± 0.0046 | 1.1 ± 0.064
32 | PLXNA1 (UniProt Q9UIW2) | 0.987 ± 0.0089 | 0.999 ± 0.0042
33 | UniProt Q9Y2A7 and related entries | 0.9746 ± 0.009 | 0.98 ± 0.017
34 | UniProt Q9Y2Z2 and related entries | 0.9764 ± 0.0053 | 0.9619 ± 0.006
35 | UniProt Q9Y2I1 and related entries | 0.966 ± 0.03 | 0.974 ± 0.022
36 | BCS1L (UniProt Q9Y276) | 1.02 ± 0.044 | 0.969 ± 0.046
37 | UniProt Q9UL15 and related entries | 1.018 ± 0.007 | 1 ± 0.015
38 | DPP7 (UniProt Q9UHL4) | 0.994 ± 0.022 | 0.99 ± 0.041
39 | UniProt Q9Y320 and related entries | 0.958 ± 0.04 | 0.971 ± 0.037
40 | ZNF148 (UniProt Q9UQR1) | 0.977 ± 0.014 | 0.992 ± 0.029
41 | PCYOX1 (UniProt Q9UHG3) | 1.02 ± 0.031 | 1 ± 0.027
42 | UniProt Q9UK61 and related entries | 1.02 ± 0.018 | 0.998 ± 0.041
43 | STX8 (UniProt Q9UNK0) | 0.995 ± 0.023 | 0.9659 ± 0.0082
